Measured values taken from US5182300A, “Furosemide salts” (Roussel Uclaf, priority 1989, dated 1993).
Where a name gives a salt, the structure may show the parent alone.

Assay: physchem
Settings: relative to initial titer; for remaining at 624 h: Titer in furosemide after 26 d; for remaining at 240 h: Titer in furosemide after 10 d; for remaining at 888 h: Titer in furosemide after 37 d
[1] = water, Sol. 6, 25° C., water, 90.4 mg/ml
[2] = water, Sol. 1, 25° C., water, 97.2 mg/ml
[3] = water, Sol. 3, 25° C., water, 275.3 mg/ml

For `NS(=O)(=O)c1cc(C(=O)O)c(NCc2ccco2)cc1Cl` [furosemide salt of L-lysine, L-lysine salt of furosemide], the remaining at 624 h (physiological solution, Sol. 2, 25° C., physiol. sol., 184.4 mg/ml) was 99.6%, the remaining at 5110 h (water with 4% mannitol, Titer in furosemide after 7 m, Sol. 7, 4° C., water containing 4% by weight of mannitol, 72.1 mg/ml) was 99.9% and the remaining at 8760 h (water with 4% mannitol, Titer in furosemide after 12 m, Sol. 7, 4° C., water containing 4% by weight of mannitol, 72.1 mg/ml) was 99.1%. The remaining at 240 h (water, Sol. 4, 60° C., water, 125.0 mg/ml) was 99.3%, the remaining at 240 h (water, Sol. 5, 25° C., preserved away from the light, water, 125.0 mg/ml) was 100% and the remaining at 240 h [1] was 99.4%. For the same compound, the remaining at 624 h [2] was 97.7%, the remaining at 624 h [3] was 99.6% and the remaining at 888 h [2] was 96.8%. It also gave a remaining at 888 h (water, Sol. 2, 25° C., physiol. sol., 184.4 mg/ml) of 98.7%, a remaining at 888 h [3] of 98.2% and a remaining at 888 h [1] of 98.9%.
